The target in test [1] is PD-L1, endogenous (human (endogenous in H1299 and H460)) (UniProt Q9NZQ7). In words: co-IP; endogenous proteins in lysates of H1299 and H460 cells; anti-PD-L1 or anti-USP5 antibody with protein A/G sepharose beads overnight at 4 °C in EBC buffer (50 mM Tris-HCl pH 7.6-8.0, 0.5% NP-40, 1 mM EDTA, 1 mM β-mercaptoethanol); western blot.
Test [2] addresses ubiquitin specific peptidase 5 (USP5), endogenous (human (endogenous in H1299 and H460)) (UniProt P45974). The description is as above.
The target of test [3] is recombinant GST-USP5 (UniProt P45974). In words: pull-down; in vitro GST pull-down with purified recombinant GST-USP5 and His-PD-L1; both purified.

Sequences of proteins named here, by UniProt entry; tags and fusion partners are left off. A change or cut given only in a name is not applied to a line headed by its entry.
UniProt Q9NZQ7: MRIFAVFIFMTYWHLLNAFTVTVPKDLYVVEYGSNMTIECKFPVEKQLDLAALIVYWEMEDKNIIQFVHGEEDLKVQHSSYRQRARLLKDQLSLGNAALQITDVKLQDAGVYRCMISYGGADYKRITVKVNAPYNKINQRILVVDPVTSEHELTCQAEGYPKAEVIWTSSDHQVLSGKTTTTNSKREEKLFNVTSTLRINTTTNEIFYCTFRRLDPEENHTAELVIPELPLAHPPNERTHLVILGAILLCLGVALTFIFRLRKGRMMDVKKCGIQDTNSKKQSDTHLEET
UniProt P45974: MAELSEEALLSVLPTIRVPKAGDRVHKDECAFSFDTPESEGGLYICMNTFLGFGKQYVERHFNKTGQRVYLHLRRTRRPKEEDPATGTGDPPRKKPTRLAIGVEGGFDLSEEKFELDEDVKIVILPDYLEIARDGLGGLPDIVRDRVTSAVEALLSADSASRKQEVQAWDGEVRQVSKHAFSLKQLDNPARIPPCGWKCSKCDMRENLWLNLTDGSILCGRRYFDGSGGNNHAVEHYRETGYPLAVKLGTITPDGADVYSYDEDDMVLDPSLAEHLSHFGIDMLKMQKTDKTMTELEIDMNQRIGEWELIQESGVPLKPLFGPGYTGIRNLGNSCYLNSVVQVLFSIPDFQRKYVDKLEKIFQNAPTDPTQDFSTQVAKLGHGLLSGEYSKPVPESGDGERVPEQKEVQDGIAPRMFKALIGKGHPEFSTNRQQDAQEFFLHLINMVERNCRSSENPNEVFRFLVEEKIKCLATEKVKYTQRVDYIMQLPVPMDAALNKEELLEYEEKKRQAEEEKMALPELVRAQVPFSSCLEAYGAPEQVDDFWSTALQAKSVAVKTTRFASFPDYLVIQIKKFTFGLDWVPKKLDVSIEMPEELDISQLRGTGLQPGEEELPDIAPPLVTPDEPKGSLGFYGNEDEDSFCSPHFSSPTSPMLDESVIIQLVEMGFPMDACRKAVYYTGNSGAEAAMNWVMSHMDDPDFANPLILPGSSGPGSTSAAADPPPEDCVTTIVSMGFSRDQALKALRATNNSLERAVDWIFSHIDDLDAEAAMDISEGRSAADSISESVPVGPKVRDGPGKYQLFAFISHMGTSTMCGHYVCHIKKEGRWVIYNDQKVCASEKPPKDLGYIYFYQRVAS

Results are given in words; binding and its absence hold for the method and conditions named. For part of these data: Binding seen in cells or lysates may run through a third protein. Some entries that bind do so weakly or less than the wild type.

The values that follow come from publication PMC8571306.

“ubiquitin specific peptidase 5 (USP5), endogenous (from UniProt P45974 1-858) (enzyme)”: the binding entry in test [1] is recorded as “binds”.

For “PD-L1, endogenous (from UniProt Q9NZQ7 19-290)”, in test [2], the binding result is listed as “binds”.

For “recombinant His6-PD-L1 (from UniProt Q9NZQ7 19-238)”, the binding result in test [3] was “binds”.
